Measured values taken from the supplement of paper PMC8728848.
The list shows a part of the results.

Experiments:
Test in all cases: glycan array binding signal (z-score within array); higher = stronger binding
Conditions in all cases: glycan notation: IUPAC condensed, linker removed
[1] = target: Gal6S(b1-4)Glc6S
Summary of the method: (§1)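 Negative Z-scores can be read as non-binding. The Z-score is calculated within each array and then averaged across arrays of one protein sequence at different concentrations or buffers and across linkers. Arrays, 3228 in all, were curated from the Consortium for Functional Glycomics database and kept only where the protein sequence was available.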

[2] = target: Gal6S(b1-4)GlcNAc
Summary of the method: as §1

[3] = target: Gal6S(b1-4)GlcNAc6S
Summary of the method: as §1

[4] = target: GalNAc(a1-3)Gal
Summary of the method: as §1

[5] = target: GalNAc(a1-3)GalNAc
Summary of the method: as §1

[6] = target: GalNAc(a1-3)GalNAc(b1-3)Gal(a1-4)Gal(b1-4)Glc
Summary of the method: as §1

[7] = target: GalNAc(a1-3)GalNAc(b1-3)Gal(a1-4)Gal(b1-4)GlcNAc
Summary of the method: as §1

[8] = target: GalNAc(b1-3)Gal
Summary of the method: as §1

[9] = target: GalNAc(b1-3)Gal(a1-4)Gal(b1-4)GlcNAc
Summary of the method: as §1

[10] = target: GalNAc(b1-3)Gal(a1-4)Gal(b1-4)GlcNAc(b1-3)Gal(b1-4)Glc
Summary of the method: as §1

[11] = target: GalNAc(b1-3)Gal(a1-6)Gal(b1-4)Glc
Summary of the method: as §1

[12] = target: GalNAc(b1-3)GalNAc
Summary of the method: as §1

[13] = target: GalNAc(b1-3)GlcNAc
Summary of the method: as §1

[14] = target: GalNAc(b1-4)Gal(b1-4)Glc
Summary of the method: as §1

[15] = target: GalNAc(b1-4)GlcNAc
Summary of the method: as §1

[16] = target: GalNAc(b1-4)GlcNAc(b1-2)Man
Summary of the method: as §1

[17] = target: GalNAc(b1-4)GlcNAc(b1-2)Man(a1-3)[GalNAc(b1-4)GlcNAc(b1-2)Man(a1-6)]Man(b1-4)GlcNAc(b1-4)GlcNAc
Summary of the method: as §1

[18] = target: GalNAc(b1-4)GlcNAc(b1-3)GalNAc(b1-4)GlcNAc
Summary of the method: as §1

[19] = target: GalNAc(b1-4)GlcNAc6S
Summary of the method: as §1

[20] = target: GalNAc(b1-6)GalNAc
Summary of the method: as §1

[21] = target: GalNAc3S(b1-4)GlcNAc
Summary of the method: as §1

[22] = target: GalNAc3S(b1-4)GlcNAc3S
Summary of the method: as §1

[23] = target: GalNAc3S(b1-4)[Fuc(a1-3)]GlcNAc
Summary of the method: as §1

[24] = target: GalNAc4S6S(b1-4)GlcNAc
Summary of the method: as §1

[25] = target: GalNAc6S(b1-4)GlcNAc
Summary of the method: as §1

[26] = target: Glc(a1-4)Glc
Summary of the method: as §1

[27] = target: Glc(a1-4)Glc(a1-4)Glc(a1-4)Glc
Summary of the method: as §1

[28] = target: Glc(a1-6)Glc(a1-6)Glc
Summary of the method: as §1

[29] = target: Glc(a1-6)Glc(a1-6)Glc(a1-6)Glc
Summary of the method: as §1

[30] = target: Glc(b1-4)Glc
Summary of the method: as §1

[31] = target: Glc(b1-6)Glc
Summary of the method: as §1

[32] = target: GlcA(b1-3)Gal
Summary of the method: as §1

[33] = target: GlcA(b1-3)GlcNAc
Summary of the method: as §1

[34] = target: GlcA(b1-6)Gal
Summary of the method: as §1

[35] = target: GlcA3S(b1-3)Gal(b1-4)GlcNAc(b1-2)Man
Summary of the method: as §1

[36] = target: GlcA3S(b1-3)Gal(b1-4)GlcNAc(b1-3)Gal(b1-4)Glc
Summary of the method: as §1

[37] = target: GlcNAc(a1-3)Gal(b1-4)GlcNAc
Summary of the method: as §1

[38] = target: GlcNAc(a1-4)Gal(b1-3)GlcNAc
Summary of the method: as §1

[39] = target: GlcNAc(a1-4)Gal(b1-4)GalNAc
Summary of the method: as §1

[40] = target: GlcNAc(a1-4)Gal(b1-4)GlcNAc
Summary of the method: as §1

[41] = target: GlcNAc(a1-4)Gal(b1-4)GlcNAc(b1-3)Gal(b1-4)Glc
Summary of the method: as §1

[42] = target: GlcNAc(a1-4)Gal(b1-4)GlcNAc(b1-3)Gal(b1-4)GlcNAc
Summary of the method: as §1

[43] = target: GlcNAc(a1-4)Gal(b1-4)GlcNAc(b1-3)Gal(b1-4)GlcNAc(b1-3)Gal(b1-4)GlcNAc
Summary of the method: as §1

[44] = target: GlcNAc(a1-4)Gal(b1-4)GlcNAc(b1-3)Gal(b1-4)[Fuc(a1-3)]GlcNAc(b1-3)Gal(b1-4)[Fuc(a1-3)]GlcNAc
Summary of the method: as §1

[45] = target: GlcNAc(a1-6)Gal(b1-4)GlcNAc
Summary of the method: as §1

B1: SP15308F-bth-333-19-333 (Bacteroides thetaiotaomicron) (protein)
chain: SCNNEWESEQYVQMVSFKAPVNAQGVTPIYIRYKPEGKVTYQLPLIVSGSTMNSKDLNVHVGLDLDTLDVLNVEHFGSRKELFFKPLENKYYEFPETVQIPAGECTSLLPIDFALKDLDQVDKWVLPLAIQSNDPSHNYQANPRKFYRRAMLRISPFNDYSGQYSATAYKVYFKGNEKEAIVPEYHTSYVIDDKTIFFYAGLIDIDRLDRKYYKIKFEFTEEKIDLQTRKLKISSDNEDINLVVKGQPSYTVEEEMDATRPYLKHIYVTINNLEYEFTDYTSVPGYPLEYVVKGSLTMERKINTQIPDEDQAIEW
[1]
  glycan array binding signal (z-score): 0.269
[2]
  glycan array binding signal (z-score): -0.584
[3]
  glycan array binding signal (z-score): -1.02
[4]
  glycan array binding signal (z-score): 1.23
[5]
  glycan array binding signal (z-score): -0.628
[6]
  glycan array binding signal (z-score): -0.565
[7]
  glycan array binding signal (z-score): 0.634
[8]
  glycan array binding signal (z-score): -0.62
[9]
  glycan array binding signal (z-score): 0.394
[10]
  glycan array binding signal (z-score): -0.982
[11]
  glycan array binding signal (z-score): -0.311
[12]
  glycan array binding signal (z-score): -1.01
[13]
  glycan array binding signal (z-score): -0.114
[14]
  glycan array binding signal (z-score): -1.55
[15]
  glycan array binding signal (z-score): 0.196
[16]
  glycan array binding signal (z-score): -0.322
[17]
  glycan array binding signal (z-score): 1.38
[18]
  glycan array binding signal (z-score): 0.276
[19]
  glycan array binding signal (z-score): -0.005
[20]
  glycan array binding signal (z-score): 2.02
[21]
  glycan array binding signal (z-score): 0.27
[22]
  glycan array binding signal (z-score): -0.302
[23]
  glycan array binding signal (z-score): 0.658
[24]
  glycan array binding signal (z-score): -0.21
[25]
  glycan array binding signal (z-score): -0.968
[26]
  glycan array binding signal (z-score): 0.705
[27]
  glycan array binding signal (z-score): 1.48
[28]
  glycan array binding signal (z-score): -0.395
[29]
  glycan array binding signal (z-score): -0.539
[30]
  glycan array binding signal (z-score): -0.398
[31]
  glycan array binding signal (z-score): -0.229
[32]
  glycan array binding signal (z-score): -0.59
[33]
  glycan array binding signal (z-score): -0.997
[34]
  glycan array binding signal (z-score): 0.698
[35]
  glycan array binding signal (z-score): 2.11
[36]
  glycan array binding signal (z-score): -0.33
[37]
  glycan array binding signal (z-score): -0.271
[38]
  glycan array binding signal (z-score): -0.269
[39]
  glycan array binding signal (z-score): -0.499
[40]
  glycan array binding signal (z-score): -0.026
[41]
  glycan array binding signal (z-score): -0.585
[42]
  glycan array binding signal (z-score): -1.29
[43]
  glycan array binding signal (z-score): 2.03
[44]
  glycan array binding signal (z-score): 2.63
[45]
  glycan array binding signal (z-score): 0.218
